According to paper doi:10.1101/2025.08.23.671862:
No constants are given. Whether binding was seen depends on the method and setting. Where a sequence is shown, tags or fusion partners need not be part of it.

Target: T1, Tc24-WT_(3CS1) Tag-less (Trypanosoma cruzi), P07749
T1 chain: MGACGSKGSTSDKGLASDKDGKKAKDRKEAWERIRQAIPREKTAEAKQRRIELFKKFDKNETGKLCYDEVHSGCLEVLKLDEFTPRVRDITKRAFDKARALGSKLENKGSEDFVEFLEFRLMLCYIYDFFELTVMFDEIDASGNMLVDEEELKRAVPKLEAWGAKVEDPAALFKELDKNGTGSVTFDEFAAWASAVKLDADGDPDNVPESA
Test: SEC-MALS
Details: remark: other sources report otherwise

B1: Tc24-WT_(3CS1) Tag-less, P07749 1-211 (protein)
chain: MGACGSKGSTSDKGLASDKDGKKAKDRKEAWERIRQAIPREKTAEAKQRRIELFKKFDKNETGKLCYDEVHSGCLEVLKLDEFTPRVRDITKRAFDKARALGSKLENKGSEDFVEFLEFRLMLCYIYDFFELTVMFDEIDASGNMLVDEEELKRAVPKLEAWGAKVEDPAALFKELDKNGTGSVTFDEFAAWASAVKLDADGDPDNVPESA
- binding: no binding
